These are yes or no findings as the source states them, for the method shown. Binding seen in cells or lysates may run through a third protein. Some results given as binding are weak or reduced against the parent protein; the word gives no strength.
Key:
[1] = target: heat shock factor-1 (mouse (endogenous in mouse fibroblasts)) (UniProt P38532); experiment: co-IP; nuclear extracts of wild-type mouse fibroblasts, pre-cleared with normal mouse IgG-AC; immunoprecipitated with HSF-1 antibody (Stressgen SPA-950) or anti-PARP antibody (Biomol SA-250) and protein A/G PLUS-agarose overnight at 4°C, washed three times in PBS, blotted for the other protein; cells resting or heat shocked (43°C 45 min, recovery 37°C 45 min), with or without DIQ (100 μM)
[2] = target: Poly (ADP-ribose) polymerase-1 (mouse (endogenous in mouse fibroblasts)) (UniProt P11103); experiment: as above

By UniProt entry, the sequences of proteins in these tests, tags left out.
UniProt P38532: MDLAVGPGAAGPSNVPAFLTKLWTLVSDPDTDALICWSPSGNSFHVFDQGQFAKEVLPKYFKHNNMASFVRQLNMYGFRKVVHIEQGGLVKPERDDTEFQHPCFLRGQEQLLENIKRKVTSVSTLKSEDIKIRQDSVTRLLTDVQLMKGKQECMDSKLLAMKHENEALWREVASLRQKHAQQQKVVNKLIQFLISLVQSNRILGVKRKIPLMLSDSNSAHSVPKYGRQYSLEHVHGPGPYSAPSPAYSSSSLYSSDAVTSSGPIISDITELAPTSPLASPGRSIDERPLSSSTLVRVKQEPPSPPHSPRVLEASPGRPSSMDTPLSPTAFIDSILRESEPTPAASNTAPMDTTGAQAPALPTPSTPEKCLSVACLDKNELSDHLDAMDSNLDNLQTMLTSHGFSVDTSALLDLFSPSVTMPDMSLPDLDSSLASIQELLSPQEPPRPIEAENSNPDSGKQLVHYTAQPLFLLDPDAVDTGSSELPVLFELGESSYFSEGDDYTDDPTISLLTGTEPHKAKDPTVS
UniProt P11103: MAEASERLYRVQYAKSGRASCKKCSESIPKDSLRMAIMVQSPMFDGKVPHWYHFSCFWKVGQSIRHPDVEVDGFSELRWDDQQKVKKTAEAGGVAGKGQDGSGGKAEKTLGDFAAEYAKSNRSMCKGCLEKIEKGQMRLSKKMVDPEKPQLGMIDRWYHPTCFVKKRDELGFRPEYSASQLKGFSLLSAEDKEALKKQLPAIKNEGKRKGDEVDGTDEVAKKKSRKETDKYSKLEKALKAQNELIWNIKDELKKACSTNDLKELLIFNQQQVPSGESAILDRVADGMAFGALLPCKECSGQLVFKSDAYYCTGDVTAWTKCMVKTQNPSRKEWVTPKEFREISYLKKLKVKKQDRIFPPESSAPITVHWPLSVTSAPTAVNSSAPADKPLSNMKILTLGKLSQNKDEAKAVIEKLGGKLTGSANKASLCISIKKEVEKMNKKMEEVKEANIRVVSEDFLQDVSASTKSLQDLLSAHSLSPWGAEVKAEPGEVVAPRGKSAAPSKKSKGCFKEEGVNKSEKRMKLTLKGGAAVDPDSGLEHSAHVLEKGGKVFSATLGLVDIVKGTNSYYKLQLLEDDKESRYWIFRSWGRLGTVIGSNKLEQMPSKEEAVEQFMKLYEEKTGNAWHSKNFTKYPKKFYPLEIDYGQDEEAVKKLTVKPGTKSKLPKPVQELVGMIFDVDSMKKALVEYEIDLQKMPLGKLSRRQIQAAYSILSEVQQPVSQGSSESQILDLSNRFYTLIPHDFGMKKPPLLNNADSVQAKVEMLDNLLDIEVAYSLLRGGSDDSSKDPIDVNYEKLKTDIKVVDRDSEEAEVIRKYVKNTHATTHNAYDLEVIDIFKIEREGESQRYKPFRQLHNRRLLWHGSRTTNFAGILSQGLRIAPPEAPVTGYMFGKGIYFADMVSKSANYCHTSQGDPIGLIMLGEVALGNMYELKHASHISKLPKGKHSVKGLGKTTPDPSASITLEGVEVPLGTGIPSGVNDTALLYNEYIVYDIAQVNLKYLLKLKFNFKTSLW

binding [1]	binding [2]	Substance
binds		Poly (ADP-ribose) polymerase-1 (from UniProt P11103 1-1013) (enzyme)
	binds	heat shock factor-1 (from UniProt P38532 1-525)
